These results are taken from PMC8295330.

Results are given in words; binding and its absence hold for the method and conditions named. In cells and extracts the contact can be indirect. Here binding means that the protein was enriched with, or labelled near, the bait; the list need not be complete. Where a sequence is shown, tags or fusion partners need not be part of it.

The test addresses T1, Flag-tagged PPM1G protein (UniProt O15355).
T1 sequence: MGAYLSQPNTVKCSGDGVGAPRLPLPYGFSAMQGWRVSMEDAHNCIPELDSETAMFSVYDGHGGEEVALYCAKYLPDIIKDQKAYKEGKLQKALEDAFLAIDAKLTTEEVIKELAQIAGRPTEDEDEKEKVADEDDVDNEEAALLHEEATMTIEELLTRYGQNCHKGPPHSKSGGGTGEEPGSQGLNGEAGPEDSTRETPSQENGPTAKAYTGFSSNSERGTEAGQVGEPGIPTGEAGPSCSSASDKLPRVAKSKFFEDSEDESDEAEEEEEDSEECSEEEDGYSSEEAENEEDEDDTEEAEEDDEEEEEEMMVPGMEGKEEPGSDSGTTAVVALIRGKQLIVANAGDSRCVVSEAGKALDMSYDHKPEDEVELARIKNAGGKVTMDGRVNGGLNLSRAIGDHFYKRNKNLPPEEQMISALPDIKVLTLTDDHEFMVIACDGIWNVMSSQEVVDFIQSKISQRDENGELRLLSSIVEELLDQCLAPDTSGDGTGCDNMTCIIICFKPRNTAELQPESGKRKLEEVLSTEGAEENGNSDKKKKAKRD
Nature of the test: affinity purification with mass spectrometry; immunoprecipitation of Flag-tagged PPM1G from cell lysate (20 mM Tris-HCl pH 8.0, 2 mM EDTA, 1% Triton X-100, 150 mM NaCl; washes with 350 mM NaCl), protein G beads, 4 °C, then LC-MS/MS.

B1: SRSF3 (protein, UniProt P84103 1-164)
chain: MHRDSCPLDCKVYVGNLGNNGNKTELERAFGYYGPLRSVWVARNPPGFAFVEFEDPRDAADAVRELDGRTLCGCRVRVELSNGEKRSRNRGPPPSWGRRPRDDYRRRSPPPRRRSPRRRSFSRSRSRSLSRDRRRERSLSRERNHKPSRSFSRSRSRSRSNERK
Turning to B1, the binding result was “binds”.
